# In PubChem BioAssay AID248 (DTP/NCI, 2004):
# The list does not hold the whole screen: it gathers tests that were run many times, whatever their T/C, doses with no T/C, and many T/C values between a quarter and a half above the control. Further doses and runs are listed elsewhere. T/C: endpoint of the treated group in % of that of the vehicle group. Some entries give survivors of the animals treated and no T/C: the source holds a T/C of zero for them, seemingly a mark for toxic or unscored doses. Some survivor counts are full or nearly so, which does not show that the dose was tolerated: survival well below the control is almost never listed, so the zero probably covers shortened survival too. Survivors were counted at the toxicity check, usually on the fifth day, unless a day is given; later deaths do not show. Schedules are NCI's codes, read here as Q, the interval in days (D) or hours (H), X, the number of doses. Some schedules carry Z or #; the key to these is not given. Where survival is the endpoint, the PubChem record calls one and a half times the control and up active, and a quarter to a half above the control has no call in these data; cut-offs in other NCI protocols can differ. Signs of the kind (2×) stand for listed records that agree. Some T/C values are followed by the survivors on the day toxicity was checked, most often the fifth; without a count, all were alive then.
# Test system: L1210 leukemia ip in BDF1 mice, survival T/C
# Test: NCI In Vivo Anticancer Drug Screen. Data for tumor model L1210 Leukemia (intraperitoneal) in B6D2F1 (BDF1) mice
# Details: T/C endpoint: mean survival time, higher T/C = longer survival
# [1] = dose: 200.0 mg/kg/injection, schedule: Q01DX001 (ip), vehicle: Klucel (hydroxypropylcellulose) (HPC)
# [2] = dose: 400.0 mg/kg/injection, schedule: Q01DX001 (ip), vehicle: Klucel (hydroxypropylcellulose) (HPC)
# [3] = dose: 400.0 mg/kg/injection, schedule: Q01DX001 (ip), vehicle: saline
# [4] = dose: 100.0 mg/kg/injection, schedule: Q04DX003 (ip), vehicle: saline with Tween-80
# [5] = dose: 300.0 mg/kg/injection, schedule: Q01DX Z (ip), vehicle: saline
structure (smiles),measurement,setting,value
CCOC(=O)C(CC(C)C)NC(=O)C(Cc1ccc(N(CCCl)CCCl)cc1)NC(C)=O (centres undefined),T/C,"dose: 64.0 mg/kg/injection, schedule: Q01DX009 (ip), vehicle: other",138 % of control
same,T/C,"dose: 75.0 mg/kg/injection, schedule: Q01DX001 (ip), vehicle: DMSO",127 % of control
same,T/C,"dose: 100.0 mg/kg/injection, schedule: Q01DX001 (ip), vehicle: DMSO",126 % of control (2×)
same,survivor count,"dose: 128.0 mg/kg/injection, schedule: Q01DX009 (ip), vehicle: other",9 of 10
same,T/C,"dose: 150.0 mg/kg/injection, schedule: Q01DX001 (ip), vehicle: DMSO",132 % of control
same,T/C,"dose: 150.0 mg/kg/injection, schedule: Q01DX001 (ip), vehicle: olive oil, sesame oil, peanut oil",129 % of control
same,T/C,"dose: 225.0 mg/kg/injection, schedule: Q01DX001 (ip), vehicle: DMSO",141 % of control
same,T/C,"dose: 225.0 mg/kg/injection, schedule: Q01DX001 (ip), vehicle: olive oil, sesame oil, peanut oil",130 % of control
same,survivor count,"dose: 256.0 mg/kg/injection, schedule: Q01DX009 (ip), vehicle: other",1 of 10
same,T/C,"dose: 500.0 mg/kg/injection, schedule: Q01DX001 (oral), vehicle: olive oil, sesame oil, peanut oil",137 % of control
same,T/C,"dose: 750.0 mg/kg/injection, schedule: Q01DX001 (oral), vehicle: olive oil, sesame oil, peanut oil",143 % of control
same,T/C,"dose: 1000.0 mg/kg/injection, schedule: Q01DX001 (oral), vehicle: olive oil, sesame oil, peanut oil",129 % of control [9 of 10 alive]
same,survivor count,"dose: 2000.0 mg/kg/injection, schedule: Q01DX001 (oral), vehicle: olive oil, sesame oil, peanut oil",7 of 10
O=C(O)c1c[nH]n2c(=S)ncnc12,survivor count,"dose: 400.0 mg/kg/injection, schedule: Q04DX003 (ip), vehicle: saline with Tween-80",2 of 6
Cn1c2c(c3ccccc31)=NN1CCN=C1N=2,survivor count,"dose: 25.0 mg/kg/injection, schedule: Q04DX002 (ip), vehicle: saline",0 of 3
same,survivor count,"dose: 100.0 mg/kg/injection, schedule: Q04DX002 (ip), vehicle: saline",0 of 3
same,survivor count,"dose: 200.0 mg/kg/injection, schedule: Q04DX002 (ip), vehicle: saline",0 of 3
same,survivor count,"dose: 400.0 mg/kg/injection, schedule: Q04DX002 (ip), vehicle: saline",0 of 3
O=C(CNC(=O)OCc1ccccc1)NCC(=O)NC(Cc1ccccc1)C(=O)CCl (centres undefined),survivor count,"dose: 100.0 mg/kg/injection, schedule: Q01DX001 (ip), vehicle: Klucel (hydroxypropylcellulose) (HPC)",1 of 6
same,survivor count,[1],0 of 6
same,survivor count,[2],0 of 6
[I][Hg][CH2]C1COCC([CH2][Hg][I])O1.[I][Hg][CH2]C1COCC([CH2][Hg][I])O1 (centres undefined),survivor count,"dose: 20.0 mg/kg/injection, schedule: Q01DX001 (ip), vehicle: carboxymethylcellulose (CMC)",6 of 6
same,survivor count,"dose: 80.0 mg/kg/injection, schedule: Q04DX003 (ip), vehicle: carboxymethylcellulose (CMC)",3 of 6
same,survivor count,"dose: 160.0 mg/kg/injection, schedule: Q01DX001 (ip), vehicle: carboxymethylcellulose (CMC)",3 of 6
O=C(NO)Nc1ccccc1,survivor count,"dose: 350.0 mg/kg/injection, schedule: Q01DX Z (ip), vehicle: methylcellulose (MC)",2 of 6
same,survivor count,"dose: 500.0 mg/kg/injection, schedule: Q01DX Z (ip), vehicle: methylcellulose (MC)",0 of 6
CCN(CC)CCCC(C)Nc1c(C)cnc2cc(Cl)c(C)cc12 (centres undefined),survivor count,[3],0 of 4
CN(Cc1cnc2nc(NCNC(=O)C3=C(O)[C@@]4(O)C(=O)C5=C(O)c6c(O)cccc6[C@@](C)(O)[C@H]5C[C@H]4[C@H](N(C)C)C3=O)nc(N)c2n1)c1ccc(C(=O)NC(CCC(=O)O)C(=O)O)cc1 (some centres undefined),survivor count,"dose: 48.0 mg/kg/injection, schedule: Q01DX015 (ip), vehicle: saline",6 of 6
C/C=C(\Br)C(=O)Nc1ccc(OCC)cc1,survivor count,[3],0 of 4
CCCC(=O)Nc1ccc(O)cc1,T/C,"dose: 600.0 mg/kg/injection, schedule: Q01DX009 (ip), vehicle: saline with Tween-80",130 % of control [5 of 6 alive]
Cc1c(C=NCCNCCN=Cc2[nH]c(=S)[nH]c(=O)c2C)[nH]c(=S)[nH]c1=O,T/C,[4],125 % of control
COC(=O)C1C2c3ccccc3C(C1C(=O)OC)[n+]1ccccc12 (centres undefined),survivor count,"dose: 400.0 mg/kg/injection, schedule: Q04DX003 (ip), vehicle: Klucel (hydroxypropylcellulose) (HPC)",3 of 6
O=NN(CCCN(N=O)C(=O)Nc1c[nH]c(=O)[nH]c1=O)C(=O)Nc1c[nH]c(=O)[nH]c1=O,T/C,[5],130 % of control
same,T/C,"dose: 400.0 mg/kg/injection, schedule: Q01DX Z (ip), vehicle: saline",146 % of control
Nc1c([N+](=O)[O-])cc([N+](=O)[O-])c2ccccc12,survivor count,"dose: 200.0 mg/kg/injection, schedule: Q01DX001 (ip), vehicle: carboxymethylcellulose (CMC)",0 of 6
same,survivor count,"dose: 400.0 mg/kg/injection, schedule: Q01DX001 (ip), vehicle: carboxymethylcellulose (CMC)",0 of 6
C(=C\C[n+]1ccccc1)/C[n+]1ccccc1,survivor count,[3],0 of 4
[B-][N+](C)(C)C,survivor count,[1],6 of 10
same,survivor count,[2],1 of 10
NNC(=O)c1ccccc1,survivor count,[4],6 of 6
same,survivor count,"dose: 200.0 mg/kg/injection, schedule: Q01DX001 (ip), vehicle: saline",0 of 4
same,survivor count,"dose: 200.0 mg/kg/injection, schedule: Q04DX003 (ip), vehicle: saline with Tween-80",0 of 6
same,survivor count,[3],0 of 4
OCCN1CCC(CCCC2CCN(CCO)CC2)CC1,survivor count,[5],0 of 6
O=C(CCl)Nc1ccccc1,survivor count,"dose: 400.0 mg/kg/injection, schedule: Q04DX002 (ip), vehicle: Klucel (hydroxypropylcellulose) (HPC)",1 of 3
Clc1nnc(Nc2ccccc2)c2ccccc12,survivor count,"dose: 100.0 mg/kg/injection, schedule: Q04DX003 (ip), vehicle: saline",6 of 6
same,survivor count,"dose: 400.0 mg/kg/injection, schedule: Q01DX009 (ip), vehicle: Klucel (hydroxypropylcellulose) (HPC)",6 of 6
O=C1c2ccccc2C(=O)C1(Br)Br,survivor count,[3],0 of 4
ClCC1Oc2ccccc2O1,survivor count,"dose: 200.0 mg/kg/injection, schedule: Q01DX001 (ip), vehicle: other",6 of 6
